# Measurements taken from PubChem BioAssay AID540256 (National Center for Advancing Translational Sciences (NCATS), 2011).
# Out of some 300,000 compounds screened, about 3,700 (1.2%) were called active. This list was built around the results that the source calls inconclusive (neither active nor inactive); the mix of calls is not that of the screen. The call rests on the fitted dose curve; tested in HEK293 cells. Potencies of inconclusive entries are doubtful fits and often do not repeat.
# Assay: qHTS for Inhibitors of binding or entry into cells for Lassa Virus; further: nearly all actives have a fitted effect of over 50% in size
# Conditions: Lassa virus pseudotype entry inhibition, cell reporter; activity change, negative = inhibition: at 37.9 µM (top of the series) unless noted
# On the % scale 0 is the no-effect control and ±100 the full control effect; potency means the concentration at half of the fitted maximal effect.
SMILES,"activity change, negative = inhibition",Potency
CC(=O)Nc1ccc(S(=O)(=O)NCCC(=O)NNC(=O)c2ccncc2)cc1,inactive: -5.96%,
NS(=O)(=O)c1ccc(N=Nc2c(O)[nH]c3ccc(Br)cc23)cc1,,"inconclusive: 1.26 µM [inhibitor, full curve, poor fit]"
COc1ccc(N=C2c3ccccc3-c3ccc([N+](=O)[O-])cc32)cc1,,"inconclusive: 5.01 µM [inhibitor, single point]"
CCC(=O)NC(c1ccc(C)cc1)c1ccc2cccnc2c1O (stereo not given),,active: 11.2 µM
O=C(Cn1c(=O)[nH]c2ccccc2c1=O)N1CCN(c2cccc(Cl)c2)CC1,,"inconclusive: 14.1 µM [activator, single point]"
S=C(NCc1ccco1)NCc1ccco1,inactive: 12.5%,
CCc1ccc(/C=C\C(=O)N2CCc3ccccc3C2)cc1,inactive: 6.75%,
CC1=CC2=NC(=O)/C(=C\c3cc(C)n(-c4ccccc4F)c3C)C(=N)N2O1,,"inconclusive: 23.1 µM [inhibitor, partial curve, poor fit]"
CCc1ccc(C(=O)c2cn(CC(=O)Nc3cc(OC)ccc3OC)c3ccc(Cl)cc3c2=O)cc1,inactive: 18.2% [at 46.1 µM],
CCCCCn1c(=O)[nH]c2cc(C(=O)NCCN(CC)CC)ccc2c1=O,,"inconclusive: 29.1 µM [inhibitor, single point]"
CCN(C(=O)CSc1nc2ccccc2n1CC(=O)N(C)C1CCCCC1)c1ccccc1,,"inconclusive: 22.4 µM [activator, single point]"
CCOC(=O)c1cc(-c2ccccc2)n(CCC(=O)NCCc2ccccc2)c1C,,active: 11.2 µM
CCOC(=O)N1CCN(C(=O)c2cccc(N3C(=O)NC4CC3(C)Oc3ccc(Cl)cc34)c2)CC1 (stereo not given),inactive: -16.4% [at 46.1 µM],
Cc1ccc(C(=O)N/C(=C/C=C\c2ccccc2)C(=O)NCc2ccco2)cc1,,"inconclusive: 35.5 µM [inhibitor, partial curve, poor fit]"
CCN(CC)S(=O)(=O)c1ccc2c(c1)N(CC(=O)NCCCN1CCN(c3ccc(OC)cc3)CC1)C(=O)CO2,inactive: 25.2% [at 46.1 µM],
Oc1oc(-c2ccccc2)nc1C=Nc1cccc2ccccc12,,"inconclusive: 23.1 µM [inhibitor, partial curve]"
CC(C)CCNC(=O)NC(=O)COc1ccccc1C#N,inactive: -19.1%,
COc1ccc(C2=NS(=O)(=O)N(C)C(C(=O)NC(C)c3ccccc3)=C2)cc1 (stereo not given),,"inconclusive: 10 µM [inhibitor, partial curve, poor fit]"
COc1ccc(C)cc1NC(=O)c1nnn(Cc2cccc(Br)c2)c1N,inactive: -11.5% [at 46.1 µM],
O=C(Cc1ccc2c(c1)OCCO2)N1CCN(S(=O)(=O)c2cccs2)CC1,,"inconclusive: 0.794 µM [inhibitor, single point]"
CC1C(=O)C(C)C(c2ccc(Cl)cc2)NC1c1ccc(Cl)cc1 (stereo not given),,"inconclusive: 35.5 µM [inhibitor, single point]"
COc1ccc(N=c2oc3c(OC)cccc3cc2C(=O)NCc2ccco2)c(OC)c1,,"inconclusive: 29.1 µM [inhibitor, partial curve, poor fit]"
CCN1CCCC1CNCc1cccc(OC)c1OCc1ccccc1F (stereo not given),inactive: -27.7%,
CCOC(=O)c1cnc2ccc(OC)cc2c1Nc1ccc(OCc2ccccc2Cl)cc1,,"inconclusive: 35.5 µM [inhibitor, single point]"

SMILES,"activity change, negative = inhibition",Potency
COc1ccc(CNC(=O)c2cnc(N3CCCC3)nc2C)c(OC)c1,,"inconclusive: 35.5 µM [activator, partial curve, poor fit]"
COC(=O)C1CCN(C(=O)CN2C(=O)NC3(CCC(C)CC3)C2=O)CC1 (stereo not given),,"inconclusive: 35.5 µM [activator, single point]"
COc1ccc(Cl)cc1Nc1ccc2cc(S(=O)(=O)N3CCCCC3)ccc2n1,inactive: -20.1% [at 46.1 µM],
Cc1c(C(=O)N2CCOCC2)[nH]c2c1C(=O)CC(c1ccccc1Cl)C2 (stereo not given),,"inconclusive: 1.83 µM [inhibitor, full curve, poor fit]"
CCOc1ccc(NC(=O)c2ccc(F)c(S(=O)(=O)N(Cc3ccc(C(=O)OC)cc3)Cc3ccc(OC)c(OC)c3)c2)cc1,inactive: 28.5% [at 46.1 µM],
CN(C)c1ncc(C(=O)NCc2ccc(Cl)cc2)cn1,,"inconclusive: 1.41 µM [inhibitor, partial curve, poor fit]"
COc1ccccc1-c1ocnc1C(=O)N1CCN(C(=O)C(c2ccccc2)c2ccccc2)CC1,,"inconclusive: 35.5 µM [inhibitor, single point]"
Nc1ccc(CSc2ccc(Cl)cc2)c(Cl)c1,,"inconclusive: 6.31 µM [activator, single point]"
Cc1cc(Nc2nc3ccccc3nc2Cl)n(-c2ccc([N+](=O)[O-])cc2)n1,,"inconclusive: 29.1 µM [inhibitor, single point]"
O=C(Nc1ccccc1C(=O)O)c1cccc(N2C(=O)c3ccccc3C2=O)c1,inactive: -1.6% [at 46.1 µM],
CC1CCCN(C(=S)SCC(=O)c2cc(Br)cc(Br)c2O)C1 (stereo not given),inactive: 13.8%,
CC(=O)N(c1ccccc1)C(C(=O)c1ccccc1)c1ccccc1 (stereo not given),,"inconclusive: 7.94 µM [inhibitor, partial curve]"
CCOC(=O)c1ccc(NC(=O)N2CC3CCCN3c3ccccc32)cc1 (stereo not given),inactive: 21.1% [at 46.1 µM],
O=C(CN1CCC(n2nnc3cc(F)ccc32)CC1)NCCc1nc2ccccc2[nH]1,,"inconclusive: 0.058 µM [inhibitor, full curve, poor fit]"
COc1ccc2nc(NC(=O)C3CCCN(S(=O)(=O)c4cccc5nonc45)C3)sc2c1 (stereo not given),inactive: -23.3%,
CC(=O)Nc1ccc(OC(=O)c2ccc(Cl)cc2)cc1,,"inconclusive: 35.5 µM [inhibitor, partial curve, poor fit]"
O=C(Nc1ccc(S(=O)(=O)N2CCCCCC2)cc1)c1ccc(Br)o1,,active: 9.2 µM
CCc1ccc(OCC(=O)NNC(=O)c2cc(S(=O)(=O)N(C)C)ccc2N2CCCC2)cc1,,"inconclusive: 11.2 µM [activator, partial curve, poor fit]"
CC(C)(C)C1CCc2c(sc(NC(=O)c3noc4c3CCCC4)c2C#N)C1 (stereo not given),,"inconclusive: 1.41 µM [activator, partial curve, poor fit]"
CC(NC(=O)CSC1=NCCS1)c1ccccc1 (stereo not given),inactive: 0.919%,
COc1ccccc1NC(=O)CSc1cn(CC(=O)N2CCCC2)c2ccccc12,inactive: 11.6% [at 46.1 µM],
COC(=O)C(Cc1ccc(O)cc1)NC(=O)c1ccccc1 (stereo not given),,"inconclusive: 18.3 µM [activator, partial curve, poor fit]"
CC(C)Nc1nc(Cl)nc(NN(C)c2nc(N(C)C)nc(N(C)C)n2)n1,,"inconclusive: 35.5 µM [inhibitor, single point]"
C=C(C)COc1ccc(-c2[nH]ncc2Oc2ccccc2OCC)c(O)c1,,"inconclusive: 11.2 µM [inhibitor, partial curve, poor fit]"

# Single records (already shown).
# CCN1CCCC1CNCc1cccc(OC)c1OCc1ccccc1F (stereo not given) is listed with activity change, negative = inhibition: inactive: -27.7%
# CCC(=O)NC(c1ccc(C)cc1)c1ccc2cccnc2c1O (stereo not given) is listed with Potency: active: 11.2 µM
# Nc1ccc(CSc2ccc(Cl)cc2)c(Cl)c1 is listed with Potency: inconclusive: 6.31 µM [activator, single point]

# Next entries

SMILES,"activity change, negative = inhibition",Potency
CC(C)[C@H](NC(N)=O)C(=O)Nc1cccc(S(=O)(=O)NC2=NCCCCC2)c1,inactive: 1.38%,
O=C(Nc1cccc(Cl)c1)Nc1cccc(Cl)c1,inactive: -21.9%,
Cc1ccc(Cn2ccc(NC(=O)c3cc4nc(-c5ccco5)cc(C(F)(F)F)n4n3)n2)cc1,inactive: 3.72%,
CC1CCCCN1C(=O)c1ccc2c(c1)N(Cc1ccc(F)cc1)C(=O)c1ccccc1S2(=O)=O (stereo not given),,"inconclusive: 3.98 µM [inhibitor, partial curve]"
CCN(CCCNC(=O)c1cc2c(=O)n(CC)c3ccccc3c2s1)Cc1ccccc1,,"inconclusive: 15.8 µM [inhibitor, single point]"
COc1cccc(-n2c(C)nc3cc(C(=O)O)ccc32)c1,,"inconclusive: 5.62 µM [activator, single point]"
COc1ccc(C(=O)CSc2cc(C)nc3nc(C)nn23)cc1OC,,"inconclusive: 32.6 µM [inhibitor, partial curve, poor fit]"
CN(NC(=O)c1ccccc1F)c1nc(C(F)(F)F)nc2ccccc12,,"inconclusive: 0.501 µM [inhibitor, full curve, poor fit]"
CC(=O)c1ccc(NC(=O)C2CC2c2ccccc2)cc1 (stereo not given),inactive: 0.89%,
COc1ccc(Cl)cc1NC(=O)CN(C)C(=O)Cc1n[nH]c(=O)c2ccccc12,,"inconclusive: 6.31 µM [inhibitor, single point]"
CCn1c(SCC(=O)Nc2ccc(C)cc2)nnc1-c1ccc(O)cc1,inactive: -15.2%,
Cc1ccc2onc(CC(=O)O)c2c1,,"inconclusive: 0.116 µM [inhibitor, full curve, poor fit]"
COc1cccc(-c2nn(-c3ccccc3)cc2C(=O)n2nnc3ccccc32)c1,inactive: -0.507%,
CCC(C)N(C(=O)COC(=O)c1nc2nc(C)cc(C)n2n1)C1CCS(=O)(=O)C1 (stereo not given),inactive: 8.11%,
CCOC(=O)CSc1nc2sc(C)c(C)c2c(=O)[nH]1,inactive: 5%,
CCc1ccc(-c2cc(C)no2)cc1S(=O)(=O)NCc1ccc(OC)c(OC)c1,,"inconclusive: 12.6 µM [inhibitor, single point]"
COc1cccc(NC(=O)c2ccc(CN3CCN(c4ccccc4)CC3)cc2)c1,,"inconclusive: 29.1 µM [inhibitor, single point]"
CCCCNC(=O)COC(=O)c1ccc(NC(C)=O)cc1,inactive: 13.2% [at 46.1 µM],
CC(=O)c1cccc(NC(=O)CN2CCN(Cc3ccccc3)CC2)c1,,"inconclusive: 0.708 µM [inhibitor, single point]"
CC(CCc1ccc(O)cc1)NCc1ccc(Br)cc1 (stereo not given),,"inconclusive: 1.26 µM [activator, single point]"
CCOCCc1nnc(NC(=O)C(=O)c2cc(C)n(-c3ccc(Cl)cc3)c2C)s1,inactive: -2.6% [at 46.1 µM],
CC(=O)c1ccc(NCC2COc3ccccc3O2)c([N+](=O)[O-])c1 (stereo not given),,"inconclusive: 10 µM [inhibitor, partial curve, poor fit]"
